# Laboratory results from publication PMC12040169 (PLOS Biology, 2025).
# This is one part of the list.
# System: T1, CTL2-GFP (C. trachomatis L2/434/Bu, GFP-expressing)
# T1 construct: L2/434/Bu, GFP-expressing
# Set-up: species or system HeLa; Intracellular C. trachomatis growth in HeLa cells, bulk GFP fluorescence relative to DMSO
# Details: bulk GFP, single well; 28.5 h, 10 µM; inhibitor
row,SMILES,% of control remaining
1,COCCn1cnnc1C(C)NC(=O)N(C)Cc1nc2ccccc2s1 (stereo not shown) [CBK307427],136.228%
2,Cc1nn(CC(=O)NC2CCC2)c(=O)c2cc3sccc3n12 [CBK284110],96.1693%
3,CC(C)CNc1nc2c(ncn2[C@H]2C[C@@H](O)[C@@H](CO)O2)c(=O)[nH]1 [CBK201198],148.321%
4,N#Cc1ccc(COc2cccc(C(F)(F)F)c2)cc1 [CBK002811],72.6873%
5,CC(C)CNC(=O)N(CCc1ccccc1)Cc1ccccc1 [CBK155339],108.16%
6,O=C(O)CCc1ccc(-c2ccc(Br)cc2)n1-c1ccccc1O [CBK131892],96.5833%
7,Fc1ccc([C@@H]2CN(Cc3ccccn3)C[C@H]2c2cc[nH]n2)cc1 [CBK285416],89.4666%
8,CCOc1ccc(-c2csc(NC(=O)c3cccnc3)n2)cc1 [CBK094747],110.981%
9,Cc1cc(Nc2ccccc2C)c2cc(C(=O)O)ccc2n1 [CBK269458C],73.726%
10,COc1ccc(NC(=O)c2cc([N+](=O)[O-])ccc2N2CCN(C)CC2)cc1 [CBK263017],119.253%
11,CNC(=O)c1ccc(-c2cccc(COC)c2)nc1NCC1CC1 [CBK106322],196.4%
12,O=C(CCS(=O)(=O)c1ccccc1)N(Cc1cccnc1)c1nc2c(F)cccc2s1 [CBK294422],154.201%
13,CC1CCCC(C)N1C(=O)Cn1cnc2c(Cl)cc(Cl)cc2c1=O (stereo not shown) [CBK306222],139.669%
14,CCCNC(=O)CN(C)Cc1cn2cccc(C)c2n1 [CBK304800],113.596%
15,CCC(=O)N[C@H]1CC[C@]2(CC1)CNC(=O)c1ccccc1O2 [CBK281681],76.6483%
16,Cc1ccc2cc(C3CC(c4ccccc4)=NN3C(=O)CCC(=O)O)c(=O)[nH]c2c1 (stereo not shown) [CBK296127],103.293%
17,CC(C)NC(=O)N[C@H]1CC[C@]2(CC1)CC(=O)c1ccccc1O2 [CBK283389],83.2171%
18,COc1cccc(CN2CCN(Cc3ccco3)[C@@H](C)C2)c1 [CBK284265],125.327%
19,Cc1ccc(-n2nnnc2SCC(=O)O)cc1 [CBK287048],133.849%
20,Clc1ccc(COc2nccnc2N2CCN(CCOc3ccccc3)CC2)cc1Cl [CBK083091T],87.6871%
21,O=S(=O)(c1ccc(Br)cc1F)N1CCCCC1CO (stereo not shown) [CBK051302],115.253%
22,CC(=O)c1ccc(C)cc1OC(=O)C1CCCN(S(C)(=O)=O)C1 (stereo not shown) [CBK306140],103.574%
23,CCOC(=O)c1cnn(C2CCCN(c3cccc(C#N)n3)C2)c1 (stereo not shown) [CBK306430],142.604%
24,CC(Oc1ccc(Br)cc1)C(=O)Nc1nc2c(s1)CCC2 (stereo not shown) [CBK296723],120.509%
25,COC1C(O)C(CO)OC1n1cnc2cnc(N)nc21 (stereo not shown) [CBK201290],124.002%
26,O=C(Nc1ccc(Cn2cncn2)cc1)C1CC2C=CC1C21CC1 (stereo not shown) [CBK281399],130.558%
27,O=C1CCCN1CCCNc1nccnc1-c1ccncc1 [CBK036832],142.665%

# 3 structures from above, ordered by heavy-atom count, descending:
row,SMILES,% of control remaining
20,Clc1ccc(COc2nccnc2N2CCN(CCOc3ccccc3)CC2)cc1Cl [CBK083091T],87.6871%
17,CC(C)NC(=O)N[C@H]1CC[C@]2(CC1)CC(=O)c1ccccc1O2 [CBK283389],83.2171%
19,Cc1ccc(-n2nnnc2SCC(=O)O)cc1 [CBK287048],133.849%

# Further entries:

row,SMILES,% of control remaining
1,CC(C)CNc1nc(-c2cccc(O)c2)cnc1N [CBK063862],145.123%
2,COc1ccc(/C=C(\C#N)c2nc3ccccc3n2Cc2c(C)ccc3ccccc23)cc1 [CBK262960],101.308%
3,C/C(CC(=O)Nc1ccc(C)cc1)=N\NC(=O)c1cccc(O)c1 [CBK262618],82.2174%
4,CCOC(=O)c1[nH]c2ccccc2c1NS(=O)(=O)Cc1ccccc1[N+](=O)[O-] [CBK047426],131.899%
5,O=C(NCc1ccccc1)[C@H]1CN2CCC1C[C@@H]2Cn1cc(-c2ccc(F)cc2)nn1 (stereo partly shown) [CBK288736],121.966%
6,O=C(CSc1ccccn1)Nc1ccc(CN2CCOCC2)cc1 [CBK306072],131.781%
7,COc1ccc(C(NC(=O)C2CCN(Cc3ccc(OC)c(OC)c3)CC2)c2ccccc2C)cn1 (stereo not shown) [CBK081452T],124.789%
8,COCCOc1ncccc1OCc1ccccc1 [CBK001456],107.853%
9,CC(C)(C)OC(=O)N1CCC(NCCc2ccccn2)C1 (stereo not shown) [CBK304839],101.965%
10,O=C(COc1ccc(Cl)cc1Cl)OCCNC1=NS(=O)(=O)c2ccccc21 [CBK264905],114.489%
11,CCCn1cc(CN2C3CCC2CC(O)(c2ccccc2F)C3)cn1 (stereo not shown) [CBK282664],139.375%
12,O=c1[nH]cccc1-c1noc(-c2cnccn2)n1 [CBK288538],108.487%
13,Oc1c(C(c2ccccc2)N2CCc3ccccc3C2)sc2ncnn12 (stereo not shown) [CBK287612],113.918%
14,OCc1ccc(OCCCOc2cccc3cccnc23)cc1 [CBK269674],113.698%
15,O=C1CC(NCc2ccccc2)C(=O)N1c1ccc(N2C(=O)CC(NCc3ccccc3)C2=O)cc1 (stereo not shown) [CBK263963],100%
16,CCOc1ccc(S(=O)(=O)N2CCSC2c2ccc(OC)c([N+](=O)[O-])c2)cc1 (stereo not shown) [CBK263293],80.4167%
17,COc1cc2c(cc1OC)CN(Cc1cc(=O)[nH]c(=O)[nH]1)CC2 [CBK126393],100%
18,O=C(CCn1cnc2ccccc2c1=O)Nc1cccc(C(F)(F)F)c1 [CBK267687],125.598%
19,CSc1ncc(Cl)c(C(=O)Nc2sc3c(c2C(=O)NCC2CCCO2)CCC3)n1 (stereo not shown) [CBK268959],121.019%
20,CCc1nnc(NS(=O)(=O)c2ccc(NC(=O)c3ccc([N+](=O)[O-])cc3)cc2)s1 [CBK045483],90.4179%
21,O=C(CCCOc1ccccc1)N1CCN(c2cccc(Cl)c2)CC1 [CBK304354],108.722%
22,COc1ccccc1C(=O)NC1CN2CCC1CC2 (stereo not shown) [CBK018475C],112.713%
23,Cn1cc(-c2nc(C(=O)NCC3CCN(c4ccccc4)C3)cs2)cn1 (stereo not shown) [CBK305633],121.671%
24,O=c1ccccn1COCc1ccccc1 [CBK006438],119.608%
25,CC(C)C(=O)Nc1cc2cccnc2nc1-c1ccc2c(c1)OCCCO2 [CBK073658],155.866%
26,O=C(O)/C(=N\c1cccc2ccccc12)c1ccccc1 [CBK262224],26.0107%
27,O=c1[nH]c2cccc3c2n1C[C@H](NCCc1ccccc1)C3 [CBK016688C],56.3977%

row,SMILES,% of control remaining
1,c1csc(C2Nc3ccccc3C3=NCCCN32)c1 (stereo not shown) [CBK284489],101.979%
2,COc1cc(/C=C/C(=O)O)cc(S(=O)(=O)N2CCc3ccccc3C2)c1OC [CBK264406],100%
3,N#Cc1ccc(-c2csc(NC(=O)c3ccc(Cl)s3)n2)cc1 [CBK287321],102.563%
4,Cc1nc2ccc(C(=O)N3CCN(C)CC3)cn2c1N(C)C(=O)CCc1ccccc1 [CBK146786],123.355%
5,COc1c(Cl)cc(Cl)cc1CNCCCN1CCOCC1 [CBK278165C],156.954%
6,COC(=O)c1sccc1-c1ccc(C2C3=C(CCCC3=O)NC3=C2C(=O)CCC3)o1 [CBK005748],132.194%
7,CCNc1nccnc1-c1ccncc1 [CBK088586],103.437%
8,CC(C)(C)C1=CC2=NC3(CCC3)C3C[C@](O)(Cc4ccccc4)[C@@H](O)[C@@H]3N2O1 (stereo partly shown) [CBK303261],133.073%
9,Cc1ccn(CCNC(=O)Cn2c3c(c4ccccc42)CCC3)n1 [CBK282708],128.352%
10,COc1ccc([N+](=O)[O-])cc1N(CC(=O)Nc1cccc2ccccc12)S(C)(=O)=O [CBK268197],95.2284%
11,O=C(Nc1cc(Oc2cccnc2)cc([N+](=O)[O-])c1)c1cc2nc(-c3ccccc3)cc(-c3ccccc3)n2n1 [CBK262554],100.826%
12,CCC(=O)N1CCC(c2nc(C3CCCC3)no2)C1 (stereo not shown) [CBK285458],115.722%
13,O=C(O)CC1(CNC(=O)Cn2nc(-c3ccccc3)ccc2=O)CCCCC1 [CBK286866],133.098%
14,COCCC(=O)NC(Cc1ccsc1)c1nc(C)cs1 (stereo not shown) [CBK282830],115.12%
15,CCOc1ccc(-c2cncc(N3CCC(C(=O)O)CC3)n2)cc1 [CBK065870],182.217%
16,CCN1CCC(CC(=O)N2CCC(c3ccccc3)C2)CC1 (stereo not shown) [CBK281958],161.937%
17,Cc1nc(C)n(CC2CCCN2Cc2cn3ccccc3c2C#N)n1 (stereo not shown) [CBK304006],126.302%
18,Cn1c(C(=O)NCCN2CCOCC2)cc2oc(-c3ccccc3)nc2c1=O [CBK056726T],143.368%
19,CC(NC(=O)CC(C)n1cccn1)c1cc2cc(Cl)ccc2o1 (stereo not shown) [CBK281432],122.645%
20,Cc1nn(C)cc1C(C)NC(=O)C1(c2ccccc2F)CCOCC1 (stereo not shown) [CBK281594],130.53%
21,CN(CC1CCCC1)c1nccc(N2CCN[C@H]3CS(=O)(=O)C[C@H]32)n1 [CBK307060],189.4%
22,Cc1cc2c(cc3c(=O)n(CC(=O)N4CCCCC4)nc(C)n32)s1 [CBK284063],135.805%
23,O=[N+]([O-])c1ccc(Cc2cc[n+](-c3nc4ccccc4nc3[N-]S(=O)(=O)c3ccc([N+](=O)[O-])cc3)cc2)cc1 [CBK301201],94.708%
24,CN(CC(=O)O)C(=O)c1ccc(S(=O)(=O)N2CCCCC2)cc1 [CBK265715],81.8201%
25,Cc1ccc(CN(CCCn2ccnc2)Cc2ccccn2)o1 [CBK283102],85.376%

# By substructure: the compounds so far with a CF3 group (2)
row,SMILES,% of control remaining
4,N#Cc1ccc(COc2cccc(C(F)(F)F)c2)cc1 [CBK002811],72.6873%
18,O=C(CCn1cnc2ccccc2c1=O)Nc1cccc(C(F)(F)F)c1 [CBK267687],125.598%

# 2 records drawn at random from those above:
row,SMILES,% of control remaining
15,CCOc1ccc(-c2cncc(N3CCC(C(=O)O)CC3)n2)cc1 [CBK065870],182.217%
13,Oc1c(C(c2ccccc2)N2CCc3ccccc3C2)sc2ncnn12 (stereo not shown) [CBK287612],113.918%
